Measured values reported in PMC8993864.
These are yes or no findings as the source states them, for the method shown. Binding seen in cells or lysates may run through a third protein. A yes stands for co-enrichment or nearness to the bait. Other partners may have been found.

Amino acid sequences for entries named in this document (tags omitted).
UniProt Q96KN1: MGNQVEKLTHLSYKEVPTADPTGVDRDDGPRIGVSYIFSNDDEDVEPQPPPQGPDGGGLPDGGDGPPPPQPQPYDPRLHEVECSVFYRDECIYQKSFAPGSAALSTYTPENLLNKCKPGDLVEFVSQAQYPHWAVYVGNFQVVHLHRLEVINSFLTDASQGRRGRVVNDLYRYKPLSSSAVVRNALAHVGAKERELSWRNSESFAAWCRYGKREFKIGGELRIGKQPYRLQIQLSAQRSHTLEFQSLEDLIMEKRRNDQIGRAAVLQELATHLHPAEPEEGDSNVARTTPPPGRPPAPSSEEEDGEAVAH
UniProt P06748: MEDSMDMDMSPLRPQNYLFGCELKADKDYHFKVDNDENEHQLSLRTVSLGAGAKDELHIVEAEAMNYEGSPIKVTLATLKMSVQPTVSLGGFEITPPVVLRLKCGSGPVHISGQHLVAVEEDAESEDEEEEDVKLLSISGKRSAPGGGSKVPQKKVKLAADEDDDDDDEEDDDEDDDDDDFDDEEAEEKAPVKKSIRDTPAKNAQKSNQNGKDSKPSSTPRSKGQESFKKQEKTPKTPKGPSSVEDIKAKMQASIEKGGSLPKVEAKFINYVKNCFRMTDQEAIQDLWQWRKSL

Target: FLAG-FAM84B (pCMV-FLAG-FAM84B) (UniProt Q96KN1)
Test: affinity purification with mass spectrometry; cells transfected with pCMV-FLAG-FAM84B (KYSE150 in the results, KYSE450 in the methods); 1 mg lysate protein with anti-FAM84B or anti-IgG and Protein A/G plus-agarose overnight at 4 °C; silver staining, differential bands analysed by MS

In the case of “NPM1, endogenous (from UniProt P06748 1-294)”, the binding was “binds”.
